The supplement of paper PMC5949888
Most values lie at the floor of the assay. Slopes are relative: functional sequences can read slightly below zero.

The substances below were run on Saccharomyces cerevisiae PS128 hsf1 delta, HSF1(1-493) fusion (assay: growth estimate (transactivation domain function in HSF1 fusion, heat-shock survival) (a.u. (slope of normalised read count over time)); higher = stronger growth at 37°C, i.e. more transactivation activity). Conditions: library: random library.

Substance	growth estimate
WIEPVT	< -0.25
SLRNPPEDR	< -0.25
PNVCSTMGTAIFYARCGIRV	< -0.25
ELGAVKGPGGITLEERNVCL	< -0.25
QSAKDSKAQRWPTPR	< -0.25
QTRR	< -0.25
SAELLVLFYRRRYIGGRTSW	< -0.25
VVCTIDYPSCNYHGSRRS	< -0.25
NMELTVRVWDSRFKRTEPRY	< -0.25
PNLSNCPIVSVPCQITATSK	< -0.25
GGLPVDRVHDHDDALAVSDD	< -0.25
GVISGWPGGGM	< -0.25
HFKIVSE	< -0.25
GKVSLSRRDKLVGALRDPFV	< -0.25
IHSRGHMTRNHATRSRAIGP	< -0.25
NDGVVGAKIQIWEGNRKTGN	< -0.25
ESGSPPACLQKPPFEGM	< -0.25
TTTEW	< -0.25
TILTLKPARDAKTSSWRDSK	< -0.25
TDLQHRLLQGLLLIYRWVVP	< -0.25
GVADLCVRWLQLHIMLA	< -0.25
GIDLVILLMVSLT	< -0.25
GEQLDLRSNRGGTGIKY	< -0.25

Substance	growth estimate
TWGMFCPLDG	< -0.25
PDGFDSTSCTIESQDKLVRL	< -0.25
HSGCSDR	< -0.25
YPGISSRPGASATDGILSGL	< -0.25
RSK	< -0.25
CLLLIVSY	< -0.25
AAGFGNPLVNGIDLDRELRA	< -0.25
GVKSLAPPTGRWFHGAKLWG	< -0.25
VDLLSLTRPSILGS	< -0.25
SDFCQYP	< -0.25
IGSRWNAMTYSQIWSCPSFH	< -0.25
SWEDRGERSNTDWVWTTDTM	< -0.25
AKPLGAALGTCTPGSRVAPS	< -0.25
KSRAGGEVSTAG	< -0.25
LDNLIECPSISDSRMMVPIT	< -0.25
GRQTFCTDVRLGAPRMRQSM	< -0.25
VVLDDAVT	< -0.25
VGGPFPSS	< -0.25
AAVTVL	< -0.25
VGLIWVYCATYRLALALARV	< -0.25
RSWSQSATIWRRDGTDTTRT	-0.245
VRDGLSVLPR	< -0.25
SSENG	< -0.25

Substance	growth estimate
VRGGGLLSPSVVTWSLGTST	-0.204
GNGVPRGGSDAKKRWGLMST	< -0.25
SSYVTAWIFVSPLQVWGQRH	< -0.25
HGAYGNKGLRNTGQSLAVD	< -0.25
FTLPGFDVGLSRRVDQEINP	< -0.251
TRICLLILLGVHVSHKVQTR	< -0.25
NTPQ	< -0.25
ASFGLLVREGVQHNDPGYGA	< -0.25
LIPWSQ	< -0.25
GQTFS	< -0.25
RNSVLYAFRVFQSSLGSVVS	< -0.25
VGRIRGEVGRIKISLPFMVG	< -0.25
CNLVLSTGPNRLSPC	< -0.25
SRLRDISSFMNLSSLELPAR	< -0.25
VSGMVLDLRGAAEDGVSPWH	< -0.25
IYLSALELVG	< -0.25
NGVRAVR	< -0.25
ACPPTCRIPESRGLGPRVTP	< -0.25
PVWQRKEQEVFLGDVIRVS	< -0.25
YSLRRKRCISFPKMSVLRLV	< -0.25
GVSLGSNGAILRPVALSSDP	< -0.25
INTKGVRFTSVRQPAESTSS	< -0.25
GHQG	< -0.25

Substance	growth estimate
RPFRFYLLLVERMCLCLHGL	< -0.25
KRETSKPVFWKRKKLRCGNH	< -0.25
RNGYDTRDYTIKQETSACEP	< -0.25
PSQNCERS	< -0.25
RVGCTLLVTRIPPRFVSSVA	< -0.25
VGNTPYMTLNEYATPRTTLR	< -0.25
ARAVQVNGRTAQREELAQVQ	< -0.25
WKRNLIWECRLECGLGDRDE	< -0.25
RAVGGDYTEHFLAFP	-0.231
GLRYLWISSSSIGDPLRGFV	< -0.25
EFGSPWCRGAMSNRWIFHIR	< -0.25
LGYQFDILELYGPSTSSFS	0.793
HSTCRAAV	< -0.25
SWPSTAGLIARSSG	< -0.25
KALKLLHSLGL	< -0.25
VTGVRVA	< -0.25
WTQHGCEPGSYRNLRGVTTD	< -0.25
SPFFSTSLRCGRQRPTWTSI	< -0.25
HGLSVAGLFAYATLVAYQFI	< -0.25
LAGMSK	< -0.25
TQGMQAIWPE	< -0.25
LMDKNFLIR	< -0.25
GGVHNTDRTVSTGNSKA	< -0.25

Substance	growth estimate
TCCSASGLFVVITGSNGPPH	< -0.25
RCKRLGVSYRT	< -0.25
PTQTNTQVGLI	< -0.25
GPW	< -0.25
LVTNIIVWMLGCDSGANTSV	< -0.25
IYVSGKVPSKIVAEINVGIP	< -0.25
HWNSTNISIITTIWGDNGCY	< -0.25
PSRTGKLG	< -0.25
AQP	< -0.25
GPLTYIVRVVRPSARPDTLL	< -0.25
QRVLR	< -0.25
SFCVMDGCD	< -0.25
DFGAMPGIGREIRPPRLRGR	< -0.25
RGSLRTILSLMAVD	< -0.25
YCCAFGLVAS	< -0.25
VKRDASVKSTDLGSDGYV	< -0.25
PLCGDLDLGCRSSPRIYIFL	< -0.25
AQA	-0.246
YVCVERTIRPRR	< -0.25
AYCHLCSARFASDYC	-0.246
TASPWRGKLNMFVTGSLSFN	< -0.25
TRYVRK	-0.231
SMP	< -0.25

Substance	growth estimate
GVSD	< -0.25
GHSEVV	< -0.25
SIRSAGHACKSIKMIKLFNV	< -0.25
NSLTVVFEPVGVGRTIANQG	< -0.25
RKGMGPV	< -0.25
GMGSSTVKRVPSLQRPAKVP	< -0.25
REPTSPDFISGGPSKRVLDL	< -0.25
ESIAPKVRAYKSTGPAQSRD	< -0.25
KSAGKVWGARGTS	< -0.25
ERYQSWVSPIRPAQAQL	< -0.25
VIERDYHGHCMTCHVL	< -0.25
RGMSEDRGSTVLAP	< -0.25
ASNHLVDRGPVYVVSAAIYF	< -0.25
NSAGGRTS	< -0.25
RTTRRQDHGMRHRYREVRGP	< -0.25
IATVTFMG	< -0.25
RAWRPMHVLVQGCRSTPRRP	< -0.25
GYFSKTAPEGKDDRIVRYTR	< -0.25
SPRDRGGDPSGVLVPIRLPG	< -0.25
YGRACYAGLRRERPT	< -0.25
ASDSRRSWRRGRQASGTQKV	< -0.25
AFPLLGLTVGAQIGRALSAG	< -0.25
RVWRGEPRTV	< -0.25

Substance	growth estimate
RVEDRVPPDLRDHVFLAKPS	< -0.25
LVDFRQARWAQYDASWPLWA	-0.2
LTVQNGSQAVLRGVSVTPAV	< -0.25
ALRGMGDKQSRSPGHQPVLS	< -0.25
PELNDCPYKVVVSRVKDVSR	-0.25
EIR	< -0.25
NTQIVNDEVGLVWAVGLFVG	< -0.25
RIRPLS	< -0.25
SGGSL	< -0.25
VPRGLSGGRRSAEGPEVEIE	< -0.25
MDPEFVPARFLGAPQHSGYI	< -0.25
KGGAGSGLSYR	< -0.25
RSHRFLRLSPSRCVSKPRTP	< -0.25
YTVGQASP	< -0.25
VIY	< -0.25
PDVRAIRASSVESLGISGST	< -0.25
PVSAEGTSARKLVRCG	< -0.25
ERVNETFLDEFQFPPTLPSS	-0.0955
MMRIVH	< -0.25

Quoted at random: six records from the list, in no set order.
Substance	growth estimate
NDGVVGAKIQIWEGNRKTGN	< -0.25
LTVQNGSQAVLRGVSVTPAV	< -0.25
GYFSKTAPEGKDDRIVRYTR	< -0.25
GRQTFCTDVRLGAPRMRQSM	< -0.25
VIERDYHGHCMTCHVL	< -0.25
VIY	< -0.25
